Assay in all cases: log2 fold change, soluble protein after heating vs DMSO (PISA); higher = thermal stabilisation; K562 lysate, 10 uM; active = over 0.2 and 3.5 SD of the protein, either way, in both replicates (recomputed)
Compound in one assay: O=C(CCCCCCC(=O)Nc1ccccc1)NO [vorinostat]
In short, it runs like this: (§1)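 Thermal stability, expressed as log-two fold change relative to solvent controls, is given from duplicates. Crude K562 extract in PBS pH 7.4 with 1 mM MgCl2, at 1 mg/mL protein, was treated with 10 μM compound for 30 min and heated in aliquots for 3 min across 48°C-58°C. After pooling, adjustment to 0.5% NP-40 at 4°C and centrifugation at 21,000xg for 90 min, supernatant protein was measured by TMTpro 16plex LC-MS/MS with channel sums equalised.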

The chains behind the UniProt entries cited, without tags or fusion partners. Where a name states a change or a piece, a line headed by the entry shows the natural chain unless it says otherwise.
UBE2L5, A0A1B0GUS4, UniProt A0A1B0GUS4, whole entry, looked up: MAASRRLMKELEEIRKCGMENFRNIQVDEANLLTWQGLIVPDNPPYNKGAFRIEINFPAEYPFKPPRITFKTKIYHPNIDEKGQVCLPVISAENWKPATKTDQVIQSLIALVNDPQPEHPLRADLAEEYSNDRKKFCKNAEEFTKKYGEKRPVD
UniProt Q06418: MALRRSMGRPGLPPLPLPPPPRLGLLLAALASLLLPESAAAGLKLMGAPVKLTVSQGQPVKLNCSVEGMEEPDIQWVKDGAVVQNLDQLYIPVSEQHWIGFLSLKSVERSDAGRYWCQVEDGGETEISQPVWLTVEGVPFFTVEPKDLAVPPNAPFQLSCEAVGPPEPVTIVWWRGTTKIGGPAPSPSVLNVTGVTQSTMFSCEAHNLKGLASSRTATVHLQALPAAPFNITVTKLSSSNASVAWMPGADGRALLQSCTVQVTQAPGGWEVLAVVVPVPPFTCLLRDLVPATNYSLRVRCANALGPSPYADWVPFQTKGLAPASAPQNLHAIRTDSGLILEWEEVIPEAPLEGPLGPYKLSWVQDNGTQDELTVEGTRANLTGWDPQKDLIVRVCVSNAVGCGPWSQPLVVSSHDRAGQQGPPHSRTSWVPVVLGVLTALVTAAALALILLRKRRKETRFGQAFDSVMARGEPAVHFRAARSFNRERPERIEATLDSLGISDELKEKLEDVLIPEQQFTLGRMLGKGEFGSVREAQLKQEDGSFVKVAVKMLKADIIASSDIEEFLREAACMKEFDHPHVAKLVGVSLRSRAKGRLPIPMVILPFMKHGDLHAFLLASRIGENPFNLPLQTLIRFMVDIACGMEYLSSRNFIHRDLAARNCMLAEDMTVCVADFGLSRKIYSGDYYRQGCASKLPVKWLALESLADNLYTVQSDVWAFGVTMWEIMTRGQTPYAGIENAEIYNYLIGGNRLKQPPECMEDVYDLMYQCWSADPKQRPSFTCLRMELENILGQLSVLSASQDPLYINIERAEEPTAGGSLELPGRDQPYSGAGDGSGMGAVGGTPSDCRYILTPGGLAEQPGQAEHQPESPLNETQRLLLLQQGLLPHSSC
UniProt Q96RT8, whole entry, looked up: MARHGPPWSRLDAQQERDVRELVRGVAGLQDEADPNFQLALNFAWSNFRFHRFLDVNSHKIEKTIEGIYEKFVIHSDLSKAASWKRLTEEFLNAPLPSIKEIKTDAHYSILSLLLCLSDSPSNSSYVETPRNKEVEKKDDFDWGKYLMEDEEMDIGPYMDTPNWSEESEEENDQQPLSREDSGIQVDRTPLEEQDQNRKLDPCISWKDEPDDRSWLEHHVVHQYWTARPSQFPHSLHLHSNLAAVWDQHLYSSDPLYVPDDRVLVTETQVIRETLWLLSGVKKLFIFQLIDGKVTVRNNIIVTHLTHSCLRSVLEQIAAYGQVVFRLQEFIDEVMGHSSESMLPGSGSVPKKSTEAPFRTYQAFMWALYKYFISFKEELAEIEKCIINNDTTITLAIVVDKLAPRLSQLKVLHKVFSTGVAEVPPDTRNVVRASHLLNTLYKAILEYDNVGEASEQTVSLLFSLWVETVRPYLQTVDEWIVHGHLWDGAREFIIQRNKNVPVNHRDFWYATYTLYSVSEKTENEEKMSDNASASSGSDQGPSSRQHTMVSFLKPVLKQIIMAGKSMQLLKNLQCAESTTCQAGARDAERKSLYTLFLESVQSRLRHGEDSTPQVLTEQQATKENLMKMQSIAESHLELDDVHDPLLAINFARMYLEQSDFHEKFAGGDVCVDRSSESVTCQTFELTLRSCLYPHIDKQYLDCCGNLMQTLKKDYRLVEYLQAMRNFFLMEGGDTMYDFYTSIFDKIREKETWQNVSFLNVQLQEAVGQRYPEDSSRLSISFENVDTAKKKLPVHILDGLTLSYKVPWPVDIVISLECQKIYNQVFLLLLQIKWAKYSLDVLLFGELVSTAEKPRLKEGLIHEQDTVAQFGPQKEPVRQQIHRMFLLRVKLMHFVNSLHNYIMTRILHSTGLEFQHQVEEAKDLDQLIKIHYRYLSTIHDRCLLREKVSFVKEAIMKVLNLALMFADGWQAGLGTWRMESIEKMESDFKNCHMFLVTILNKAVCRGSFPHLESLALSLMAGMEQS
UniProt O75896: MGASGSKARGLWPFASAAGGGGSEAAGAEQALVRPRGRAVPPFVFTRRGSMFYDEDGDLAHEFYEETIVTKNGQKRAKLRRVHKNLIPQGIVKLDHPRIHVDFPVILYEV
UniProt Q9BVA1, whole entry, looked up: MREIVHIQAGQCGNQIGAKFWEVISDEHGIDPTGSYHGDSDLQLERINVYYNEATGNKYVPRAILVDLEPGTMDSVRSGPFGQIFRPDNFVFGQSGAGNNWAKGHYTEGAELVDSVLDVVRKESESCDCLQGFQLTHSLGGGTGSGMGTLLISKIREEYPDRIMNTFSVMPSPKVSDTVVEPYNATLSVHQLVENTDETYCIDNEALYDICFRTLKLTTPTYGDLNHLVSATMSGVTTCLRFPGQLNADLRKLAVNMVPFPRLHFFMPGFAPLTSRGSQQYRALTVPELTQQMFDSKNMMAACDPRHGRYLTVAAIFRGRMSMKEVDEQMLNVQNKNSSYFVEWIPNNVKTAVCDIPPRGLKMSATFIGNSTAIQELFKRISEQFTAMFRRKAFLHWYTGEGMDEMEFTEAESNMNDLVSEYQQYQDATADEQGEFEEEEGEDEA
UniProt A6NHL2: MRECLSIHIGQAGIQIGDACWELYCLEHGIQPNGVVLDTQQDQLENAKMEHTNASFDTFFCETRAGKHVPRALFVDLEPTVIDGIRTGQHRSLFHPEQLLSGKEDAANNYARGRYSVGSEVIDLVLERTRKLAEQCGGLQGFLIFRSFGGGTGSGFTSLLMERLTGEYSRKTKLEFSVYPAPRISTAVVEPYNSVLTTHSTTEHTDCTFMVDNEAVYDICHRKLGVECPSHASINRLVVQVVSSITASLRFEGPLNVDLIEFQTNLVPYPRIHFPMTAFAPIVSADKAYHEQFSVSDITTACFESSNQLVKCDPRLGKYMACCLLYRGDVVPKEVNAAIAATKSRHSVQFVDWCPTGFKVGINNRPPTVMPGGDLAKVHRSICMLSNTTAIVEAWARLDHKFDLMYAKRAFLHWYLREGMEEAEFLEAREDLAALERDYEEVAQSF

Compound in another assay: O=C(O)c1ccc2c(c1)nc(Nc1cccc(Cl)c1)c1ccncc12 [silmitasertib]
In short, it runs like this: as §1

Compound in assay [1]: O=C1NC(=O)C(c2cnc3ccccn23)=C1c1cn2c3c(cc(F)cc13)CN(C(=O)N1CCCCC1)CC2
In short, it runs like this: as §1

Compound in a further assay: c1cn2cc(-c3ccc4cn[nH]c4c3)nc(Nc3ccc(N4CCOCC4)cc3)c2n1 [entospletinib]
In short, it runs like this: as §1

Compound in assay [2]: NCC(=O)Nc1ccc(-n2nc(C(F)(F)F)cc2-c2ccc3c(ccc4ccccc43)c2)cc1
In short, it runs like this:
as §1

This is one part of the list.

Take UBA52 (UniProt P62987): the log2 fold change was inactive: 0.088 with vorinostat, inactive: 0.109 with silmitasertib, inactive: 0.02 in assay [1] and inactive: 0.083 with entospletinib.

As for UBE2L5, A0A1B0GUS4, the log2 fold change was inactive: 0.178 with vorinostat and inactive: 0.215 in the assay with silmitasertib.

Regarding TYRO3 (UniProt Q06418), the log2 fold change in assay [2] was inactive: 0.12; in assay [1], inactive: -0.016; in the assay with entospletinib it was inactive: -0.042.

In the case of UBAP2L (UniProt F8W726), the log2 fold change in assay [2] is inactive: 0.062; in assay [1] it was inactive: 0.021.

On to TUBGCP5 (UniProt Q96RT8), for which the log2 fold change is inactive: -0.029 in assay [2], inactive: 0.042 in assay [1] and inactive: -0.105 in the assay with entospletinib.

For the target UBE2I (UniProt H3BQQ9), the log2 fold change in assay [2] was inactive: 0.013; in assay [1], inactive: 0.071.

With UBQLN1 (UniProt H0YEZ9), the values for the log2 fold change in the assay with vorinostat and in the assay with silmitasertib were inactive: -0.003 and inactive: 0.103, respectively.

TUSC2 (UniProt O75896): the results for the log2 fold change with vorinostat, with silmitasertib and with entospletinib were inactive: 0.04, inactive: 0.069 and inactive: 0.227, respectively.

For the target TUBB2B (UniProt Q9BVA1), in the assay with entospletinib, the log2 fold change is inactive: 0.021.

For the target TUBAL3 (UniProt A6NHL2), the log2 fold change in assay [2] is inactive: 0.083; with vorinostat, inactive: -0.195; with silmitasertib, inactive: 0.069; in the assay with entospletinib it was inactive: -0.026.

The record behind these values is the supplement of paper PMC10849652.
